The target of the experiment is T1, HA–SIRT2 (UniProt Q8IXJ6).
T1 sequence: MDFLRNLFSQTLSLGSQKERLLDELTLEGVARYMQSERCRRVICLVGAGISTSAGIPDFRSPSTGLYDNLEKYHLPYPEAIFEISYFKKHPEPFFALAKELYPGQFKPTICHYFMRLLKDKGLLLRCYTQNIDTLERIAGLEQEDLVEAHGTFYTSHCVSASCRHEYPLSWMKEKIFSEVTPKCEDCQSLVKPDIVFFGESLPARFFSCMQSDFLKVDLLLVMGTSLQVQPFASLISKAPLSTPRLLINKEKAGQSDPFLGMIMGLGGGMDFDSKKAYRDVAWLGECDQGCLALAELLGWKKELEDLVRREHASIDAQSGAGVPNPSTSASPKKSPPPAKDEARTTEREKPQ
The experiment is described as follows: co-IP; anti-HA magnetic beads, lysates of asynchronous and mitotic (nocodazole) HEK293T cells overexpressing HA–SIRT2 and ANKLE2–GFP; 50 mM Tris-HCl pH 8, 150 mM NaCl, 1% Triton X-100; western blot.

No constants are given. Whether binding was seen depends on the method and setting. In cells and extracts the contact can be indirect. Some binding calls cover weakened binding; strength is not graded here. Sequences can lack the tags named with a protein.

The values that follow come from paper PMC5201015.

B1: HA–PARP3 (enzyme, UniProt Q9Y6F1 1-533)
chain: MAPKPKPWVQTEGPEKKKGRQAGREEDPFRSTAEALKAIPAEKRIIRVDPTCPLSSNPGTQVYEDYNCTLNQTNIENNNNKFYIIQLLQDSNRFFTCWNRWGRVGEVGQSKINHFTRLEDAKKDFEKKFREKTKNNWAERDHFVSHPGKYTLIEVQAEDEAQEAVVKVDRGPVRTVTKRVQPCSLDPATQKLITNIFSKEMFKNTMALMDLDVKKMPLGKLSKQQIARGFEALEALEEALKGPTDGGQSLEELSSHFYTVIPHNFGHSQPPPINSPELLQAKKDMLLVLADIELAQALQAVSEQEKTVEEVPHPLDRDYQLLKCQLQLLDSGAPEYKVIQTYLEQTGSNHRCPTLQHIWKVNQEGEEDRFQAHSKLGNRKLLWHGTNMAVVAAILTSGLRIMPHSGGRVGKGIYFASENSKSAGYVIGMKCGAHHVGYMFLGEVALGREHHINTDNPSLKSPPPGFDSVIARGHTEPDPTQDTELELDGQQVVVPQGQPVPCPEFSSSTFSQSEYLIYQESQCRLRYLLEVHL
As to B1, the binding result is “no binding”.

B2: ANKLE2–GFP (protein, UniProt Q86XL3 1-938)
chain: MLWPRLAAAEWAALAWELLGASVLLIAVRWLVRRLGPRPGGLGRSGTPVPPPSAAAAPASGEMTMDALLARLKLLNPDDLREEIVKAGLKCGPITSTTRFIFEKKLAQALLEQGGRLSSFYHHEAGVTALSQDPQRILKPAEGNPTDQAGFSEDRDFGYSVGLNPPEEEAVTSKTCSVPPSDTDTYRAGATASKEPPLYYGVCPVYEDVPARNERIYVYENKKEALQAVKMIKGSRFKAFSTREDAEKFARGICDYFPSPSKTSLPLSPVKTAPLFSNDRLKDGLCLSESETVNKERANSYKNPRTQDLTAKLRKAVEKGEEDTFSDLIWSNPRYLIGSGDNPTIVQEGCRYNVMHVAAKENQASICQLTLDVLENPDFMRLMYPDDDEAMLQKRIRYVVDLYLNTPDKMGYDTPLHFACKFGNADVVNVLSSHHLIVKNSRNKYDKTPEDVICERSKNKSVELKERIREYLKGHYYVPLLRAEETSSPVIGELWSPDQTAEASHVSRYGGSPRDPVLTLRAFAGPLSPAKAEDFRKLWKTPPREKAGFLHHVKKSDPERGFERVGRELAHELGYPWVEYWEFLGCFVDLSSQEGLQRLEEYLTQQEIGKKAQQETGEREASCRDKATTSGSNSISVRAFLDEDDMSLEEIKNRQNAARNNSPPTVGAFGHTRCSAFPLEQEADLIEAAEPGGPHSSRNGLCHPLNHSRTLAGKRPKAPRGEEAHLPPVSDLTVEFDKLNLQNIGRSVSKTPDESTKTKDQILTSRINAVERDLLEPSPADQLGNGHRRTESEMSARIAKMSLSPSSPRHEDQLEVTREPARRLFLFGEEPSKLDQDVLAALECADVDPHQFPAVHRWKSAVLCYSPSDRQSWPSPAVKGRFKSQLPDLSGPHSYSPGRNSVAGSNPAKPGLGSPGRYSPVHGSQLRRMARLAELAAL
Regarding B2, the binding entry is “binds”.
